This note sets out measurements from the supplement of paper PMC12819154, “High-throughput peptide-centric local stability assay extends protein–ligand identification to membrane proteins, tissues and bacteria” (Nature Structural & Molecular Biology, 2025).

Protein sequences, listed by entry. Tags and fused reporters are not part of them. Lines headed by an entry give the natural chain unless they say otherwise; changes in a name come on top.
UniProt Q9Z1Q9: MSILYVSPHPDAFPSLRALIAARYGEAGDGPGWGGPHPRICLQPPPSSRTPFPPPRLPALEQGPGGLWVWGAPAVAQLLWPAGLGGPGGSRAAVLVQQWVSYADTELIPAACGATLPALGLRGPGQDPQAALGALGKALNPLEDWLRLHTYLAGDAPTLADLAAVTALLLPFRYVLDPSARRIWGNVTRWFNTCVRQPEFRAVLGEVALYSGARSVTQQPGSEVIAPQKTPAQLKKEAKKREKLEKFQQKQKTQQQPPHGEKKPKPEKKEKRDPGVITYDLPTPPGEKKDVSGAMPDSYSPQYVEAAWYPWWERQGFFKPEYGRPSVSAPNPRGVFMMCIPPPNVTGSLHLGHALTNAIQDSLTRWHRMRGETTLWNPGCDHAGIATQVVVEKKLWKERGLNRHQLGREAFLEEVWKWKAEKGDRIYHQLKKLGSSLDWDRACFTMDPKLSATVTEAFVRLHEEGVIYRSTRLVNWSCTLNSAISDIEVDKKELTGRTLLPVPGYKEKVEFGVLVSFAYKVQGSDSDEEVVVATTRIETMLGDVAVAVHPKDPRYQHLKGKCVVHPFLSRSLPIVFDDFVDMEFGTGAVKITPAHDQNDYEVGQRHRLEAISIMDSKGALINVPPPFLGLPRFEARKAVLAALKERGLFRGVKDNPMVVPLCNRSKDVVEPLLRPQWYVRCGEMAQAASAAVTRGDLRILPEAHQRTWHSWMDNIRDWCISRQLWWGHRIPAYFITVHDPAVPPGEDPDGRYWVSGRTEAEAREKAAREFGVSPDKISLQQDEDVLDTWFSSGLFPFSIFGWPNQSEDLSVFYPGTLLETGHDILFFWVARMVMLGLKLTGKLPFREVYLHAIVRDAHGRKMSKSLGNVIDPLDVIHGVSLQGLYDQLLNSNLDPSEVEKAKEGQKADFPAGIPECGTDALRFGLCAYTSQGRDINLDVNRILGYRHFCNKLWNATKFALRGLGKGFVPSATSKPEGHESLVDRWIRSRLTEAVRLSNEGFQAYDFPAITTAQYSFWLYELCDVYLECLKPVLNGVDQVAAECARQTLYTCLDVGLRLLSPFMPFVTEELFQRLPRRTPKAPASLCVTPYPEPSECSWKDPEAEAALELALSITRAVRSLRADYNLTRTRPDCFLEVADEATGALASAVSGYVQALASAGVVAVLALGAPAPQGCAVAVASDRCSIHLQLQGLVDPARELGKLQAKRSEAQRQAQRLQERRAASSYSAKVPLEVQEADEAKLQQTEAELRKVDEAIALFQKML
UniProt Q9Z1G4, whole entry: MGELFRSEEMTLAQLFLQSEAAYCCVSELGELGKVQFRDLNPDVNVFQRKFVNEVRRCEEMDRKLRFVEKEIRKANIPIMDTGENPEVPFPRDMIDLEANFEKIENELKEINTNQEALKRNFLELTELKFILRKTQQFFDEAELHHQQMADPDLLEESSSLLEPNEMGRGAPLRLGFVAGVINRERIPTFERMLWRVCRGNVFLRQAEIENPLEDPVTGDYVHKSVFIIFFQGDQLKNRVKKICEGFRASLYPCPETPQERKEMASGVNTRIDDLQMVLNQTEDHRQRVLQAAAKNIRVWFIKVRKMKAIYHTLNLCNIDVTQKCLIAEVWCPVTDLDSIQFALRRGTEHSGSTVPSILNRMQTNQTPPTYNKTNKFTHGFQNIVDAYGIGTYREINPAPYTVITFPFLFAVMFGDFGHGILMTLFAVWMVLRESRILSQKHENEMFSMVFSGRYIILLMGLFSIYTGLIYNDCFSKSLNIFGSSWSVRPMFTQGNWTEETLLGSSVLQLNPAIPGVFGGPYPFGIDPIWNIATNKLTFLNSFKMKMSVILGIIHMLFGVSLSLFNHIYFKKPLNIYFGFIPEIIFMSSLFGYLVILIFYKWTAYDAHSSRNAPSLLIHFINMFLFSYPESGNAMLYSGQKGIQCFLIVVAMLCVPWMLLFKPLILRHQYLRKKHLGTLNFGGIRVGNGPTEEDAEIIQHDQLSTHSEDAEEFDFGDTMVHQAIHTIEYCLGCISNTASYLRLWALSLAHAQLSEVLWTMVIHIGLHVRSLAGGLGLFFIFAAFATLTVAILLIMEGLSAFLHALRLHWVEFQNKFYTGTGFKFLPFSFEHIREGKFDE
UniProt Q9Z1K5: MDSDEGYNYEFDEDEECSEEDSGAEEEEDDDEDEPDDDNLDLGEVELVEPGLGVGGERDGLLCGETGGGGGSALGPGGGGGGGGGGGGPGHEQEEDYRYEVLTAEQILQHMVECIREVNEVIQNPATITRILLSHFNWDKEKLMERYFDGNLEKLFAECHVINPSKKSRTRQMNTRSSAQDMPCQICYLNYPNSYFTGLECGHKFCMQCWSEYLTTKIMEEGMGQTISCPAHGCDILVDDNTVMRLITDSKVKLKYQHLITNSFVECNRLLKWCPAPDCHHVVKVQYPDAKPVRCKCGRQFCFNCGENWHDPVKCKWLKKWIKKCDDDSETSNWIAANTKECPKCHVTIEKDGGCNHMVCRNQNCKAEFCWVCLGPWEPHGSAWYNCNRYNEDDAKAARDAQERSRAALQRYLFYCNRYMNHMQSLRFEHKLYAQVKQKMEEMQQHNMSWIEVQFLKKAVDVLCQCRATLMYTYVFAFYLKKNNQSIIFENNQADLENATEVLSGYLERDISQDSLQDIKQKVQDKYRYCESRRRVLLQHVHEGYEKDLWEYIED
UniProt Q9R062: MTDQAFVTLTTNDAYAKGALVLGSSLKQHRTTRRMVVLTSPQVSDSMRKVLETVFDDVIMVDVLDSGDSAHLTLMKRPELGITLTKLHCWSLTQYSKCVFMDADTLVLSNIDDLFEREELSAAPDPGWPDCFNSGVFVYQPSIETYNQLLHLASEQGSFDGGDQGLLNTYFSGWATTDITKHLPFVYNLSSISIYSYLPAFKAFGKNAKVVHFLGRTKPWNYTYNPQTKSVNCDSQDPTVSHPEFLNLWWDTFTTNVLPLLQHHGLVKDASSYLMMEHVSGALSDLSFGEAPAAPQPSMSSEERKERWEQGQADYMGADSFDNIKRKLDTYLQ
UniProt Q9WTI7, whole entry: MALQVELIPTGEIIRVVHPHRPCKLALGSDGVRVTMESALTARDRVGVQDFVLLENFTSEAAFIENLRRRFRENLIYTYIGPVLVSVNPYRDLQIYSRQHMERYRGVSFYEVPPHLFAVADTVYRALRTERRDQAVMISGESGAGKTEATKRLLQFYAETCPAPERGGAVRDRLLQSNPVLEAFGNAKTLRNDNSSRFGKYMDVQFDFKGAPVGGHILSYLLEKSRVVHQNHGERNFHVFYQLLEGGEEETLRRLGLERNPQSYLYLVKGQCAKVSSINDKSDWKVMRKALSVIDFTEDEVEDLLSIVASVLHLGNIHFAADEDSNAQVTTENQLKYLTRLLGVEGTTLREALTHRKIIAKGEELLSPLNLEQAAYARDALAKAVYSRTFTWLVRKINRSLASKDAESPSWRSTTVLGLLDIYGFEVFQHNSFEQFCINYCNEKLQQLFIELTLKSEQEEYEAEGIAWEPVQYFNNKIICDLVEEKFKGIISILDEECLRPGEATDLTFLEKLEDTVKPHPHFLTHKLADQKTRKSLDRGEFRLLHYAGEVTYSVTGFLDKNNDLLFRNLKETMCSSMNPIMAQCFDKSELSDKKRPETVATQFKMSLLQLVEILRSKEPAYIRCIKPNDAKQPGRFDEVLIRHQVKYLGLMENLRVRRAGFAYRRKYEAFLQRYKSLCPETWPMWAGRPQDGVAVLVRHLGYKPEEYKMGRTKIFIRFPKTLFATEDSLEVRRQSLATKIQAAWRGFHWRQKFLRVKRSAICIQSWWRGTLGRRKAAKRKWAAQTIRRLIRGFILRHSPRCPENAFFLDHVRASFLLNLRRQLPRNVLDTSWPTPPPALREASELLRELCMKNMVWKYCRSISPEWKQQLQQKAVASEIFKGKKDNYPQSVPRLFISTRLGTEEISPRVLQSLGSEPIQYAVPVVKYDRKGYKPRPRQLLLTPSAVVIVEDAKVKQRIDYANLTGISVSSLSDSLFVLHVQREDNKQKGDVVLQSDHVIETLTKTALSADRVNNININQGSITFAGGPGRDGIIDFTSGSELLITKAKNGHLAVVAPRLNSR
UniProt Q9Z2A9: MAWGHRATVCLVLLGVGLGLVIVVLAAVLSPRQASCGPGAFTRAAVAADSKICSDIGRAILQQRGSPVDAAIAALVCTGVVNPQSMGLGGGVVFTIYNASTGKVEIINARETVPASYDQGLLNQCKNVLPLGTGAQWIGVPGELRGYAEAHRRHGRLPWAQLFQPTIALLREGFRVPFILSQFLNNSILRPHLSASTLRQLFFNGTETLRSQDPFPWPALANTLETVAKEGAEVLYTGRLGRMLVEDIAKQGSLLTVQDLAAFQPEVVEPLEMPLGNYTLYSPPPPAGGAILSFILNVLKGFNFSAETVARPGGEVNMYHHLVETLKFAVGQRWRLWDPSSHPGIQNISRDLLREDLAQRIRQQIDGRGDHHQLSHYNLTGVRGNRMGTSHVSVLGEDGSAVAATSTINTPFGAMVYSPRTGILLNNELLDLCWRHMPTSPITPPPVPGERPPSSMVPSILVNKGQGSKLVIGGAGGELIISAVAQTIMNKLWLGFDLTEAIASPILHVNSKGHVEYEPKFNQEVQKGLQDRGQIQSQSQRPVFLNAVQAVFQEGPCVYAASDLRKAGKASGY
UniProt Q9QZ85: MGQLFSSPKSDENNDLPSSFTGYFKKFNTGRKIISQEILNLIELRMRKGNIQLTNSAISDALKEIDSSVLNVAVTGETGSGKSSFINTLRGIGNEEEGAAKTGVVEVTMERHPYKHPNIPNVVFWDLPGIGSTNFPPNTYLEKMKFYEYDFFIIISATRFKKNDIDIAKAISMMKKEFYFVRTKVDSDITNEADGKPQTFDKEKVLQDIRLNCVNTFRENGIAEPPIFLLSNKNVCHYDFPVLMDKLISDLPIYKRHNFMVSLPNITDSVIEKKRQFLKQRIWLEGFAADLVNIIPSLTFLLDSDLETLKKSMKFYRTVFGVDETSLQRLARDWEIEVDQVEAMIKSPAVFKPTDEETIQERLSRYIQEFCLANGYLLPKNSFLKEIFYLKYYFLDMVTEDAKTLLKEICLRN
UniProt Q9R1P1: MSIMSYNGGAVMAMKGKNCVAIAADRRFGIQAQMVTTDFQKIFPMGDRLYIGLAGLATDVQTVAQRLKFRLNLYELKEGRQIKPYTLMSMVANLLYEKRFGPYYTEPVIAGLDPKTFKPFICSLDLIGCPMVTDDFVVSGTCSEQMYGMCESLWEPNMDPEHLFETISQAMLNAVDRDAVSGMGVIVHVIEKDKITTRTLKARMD
UniProt Q9QZH6: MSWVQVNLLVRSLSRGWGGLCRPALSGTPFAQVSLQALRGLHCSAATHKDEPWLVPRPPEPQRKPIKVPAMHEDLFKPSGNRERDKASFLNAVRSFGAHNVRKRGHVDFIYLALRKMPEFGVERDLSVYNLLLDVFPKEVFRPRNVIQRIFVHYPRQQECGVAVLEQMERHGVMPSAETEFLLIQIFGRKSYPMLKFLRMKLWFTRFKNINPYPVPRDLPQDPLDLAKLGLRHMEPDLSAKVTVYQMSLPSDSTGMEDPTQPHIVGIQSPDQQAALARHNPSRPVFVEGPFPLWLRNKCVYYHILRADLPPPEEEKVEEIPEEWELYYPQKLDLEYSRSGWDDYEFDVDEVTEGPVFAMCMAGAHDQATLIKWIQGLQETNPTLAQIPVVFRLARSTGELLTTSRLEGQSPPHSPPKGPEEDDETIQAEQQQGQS
UniProt Q9R1Q7: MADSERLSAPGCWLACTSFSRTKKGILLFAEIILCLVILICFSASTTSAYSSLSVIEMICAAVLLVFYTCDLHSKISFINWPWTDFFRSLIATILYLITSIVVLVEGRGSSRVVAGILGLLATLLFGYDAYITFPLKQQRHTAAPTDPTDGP
UniProt Q9R111: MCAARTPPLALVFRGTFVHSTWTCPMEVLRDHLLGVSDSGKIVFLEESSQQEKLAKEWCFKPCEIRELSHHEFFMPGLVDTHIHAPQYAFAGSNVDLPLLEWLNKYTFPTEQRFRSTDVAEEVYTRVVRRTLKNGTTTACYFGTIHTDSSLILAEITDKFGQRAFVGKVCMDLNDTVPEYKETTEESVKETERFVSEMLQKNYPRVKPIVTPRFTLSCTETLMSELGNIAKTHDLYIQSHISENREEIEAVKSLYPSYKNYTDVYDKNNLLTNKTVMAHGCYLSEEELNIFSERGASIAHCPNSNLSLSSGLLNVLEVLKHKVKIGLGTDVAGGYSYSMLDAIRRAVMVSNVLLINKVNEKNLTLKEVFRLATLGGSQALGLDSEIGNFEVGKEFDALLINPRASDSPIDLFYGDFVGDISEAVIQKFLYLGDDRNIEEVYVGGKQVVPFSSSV
UniProt Q9WVL0: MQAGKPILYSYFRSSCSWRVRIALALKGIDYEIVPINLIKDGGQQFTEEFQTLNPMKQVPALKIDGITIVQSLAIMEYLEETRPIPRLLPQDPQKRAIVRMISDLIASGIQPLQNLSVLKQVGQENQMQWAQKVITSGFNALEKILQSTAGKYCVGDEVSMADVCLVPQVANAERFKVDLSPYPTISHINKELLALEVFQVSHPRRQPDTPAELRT

This is one part of the list. Most entries show no effect beyond the scatter of the controls.

Compound in the experiment: CN[C@@H]1C[C@H]2O[C@@](C)([C@@H]1OC)n1c3ccccc3c3c4c(c5c6ccccc6n2c5c31)C(=O)NC4 [staurosporine]
In words: log2 fold change of pooled soluble protein (PISA), ligand vs vehicle (log2 ratio); higher = more thermally stabilized. The following applies: ligand concentration: 20 uM; assay format: PISA pool 52.9/55.5/58.6 C.
For UniProt Q9Z2Y3, the “log2 fold change of pooled soluble protein” value (“log2 fold change” for short) is -0.12. With UniProt Q9Z2I8 the figure was -0.0778; with UniProt Q9Z1Q9, -0.166; with UniProt Q9WU84, -0.0879. With UniProt Q9Z315 the figure was 0.0254; with UniProt Q9Z0H8, -0.0151. The same measure for UniProt Q9Z1G4: 0.0767; for UniProt Q9R190: -0.573; for UniProt Q9Z1T1: 0.0577. Regarding UniProt Q9Z1K5, the “log2 fold change” value is -0.0752.

With UniProt Q9R062, the “log2 fold change” value is -0.0984. With UniProt Q9Z0V7 the figure was 0.0432. For UniProt Q9R0Z9, the “log2 fold change” value is 0.139. With UniProt Q9WTI7 the figure was 0.0496; with UniProt Q9QZS2, 0.0929; with UniProt Q9WTQ5, -0.0321. The same measure for UniProt Q9Z2A9: 0.0629; for UniProt Q9QZ85: -0.0152; for UniProt Q9R0Q6: -0.0558. With UniProt Q9Z2G6 the figure was 0.107; with UniProt Q9Z0M5, 0.0321; with UniProt Q9R069, 0.0832. As to UniProt Q9Z2N8, the “log2 fold change” value was 0.165. Regarding UniProt Q9Z2J0, the “log2 fold change” value is -0.112. The same measure for UniProt Q9R1P1: 0.174.

UniProt Q9QZH6: the “log2 fold change” value is 0.0701. With UniProt Q9WTU0 the figure was -0.00417; with UniProt Q9Z0R4, -0.0424. The same measure for UniProt Q9R0M5: 0.359; for UniProt Q9QZ88: -0.158; for UniProt Q9WV32: 0.129. With UniProt Q9Z2U0 the figure was -0.0925. For UniProt Q9Z148, the “log2 fold change” value was -0.142. With UniProt Q9R1Q7 the figure was -0.0806; with UniProt Q9R111, -0.0259; with UniProt Q9Z1J3, -0.0683.

On to UniProt Q9WV03, for which the “log2 fold change” value is 0.0887.

As to UniProt Q9WVL0, the “log2 fold change” value turned out to be 0.0411. For the target UniProt Q9QYY0, the “log2 fold change” value is 0.0511.
